Data on 1 compound can be found in the supplement of paper PMC6411743.

The target in the assay is T1, A0A087X1S7|P09326 (UniProt P09326).
T1 sequence (whole entry): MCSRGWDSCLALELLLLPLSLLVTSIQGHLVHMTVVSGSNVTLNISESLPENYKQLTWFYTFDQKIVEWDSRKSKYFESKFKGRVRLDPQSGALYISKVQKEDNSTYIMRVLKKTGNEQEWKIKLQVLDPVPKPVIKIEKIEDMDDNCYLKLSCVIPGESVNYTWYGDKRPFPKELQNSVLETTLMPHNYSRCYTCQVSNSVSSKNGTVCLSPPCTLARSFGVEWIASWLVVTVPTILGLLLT
Nature of the assay: NP40-soluble protein abundance relative to vehicle (solubility fold change) (ratio); higher = more soluble protein in presence of GTP. The protocol: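 Solubility proteome profiling in Jurkat crude lysate. Lysate was treated with Mg-GTP (0.1-10 mM) for 10 min at room temperature and 3 min at 37 °C, then solubilised with 0.8% NP40 and benzonase, followed by ultracentrifugation. Proteins were quantified by TMT10 LC-MS/MS; the value is the NP40-soluble abundance relative to the NP40-processed vehicle, from 3 independent experiments.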

The structures appear in SMILES notation. ± gives the standard deviation of the averaged measurements. The list shows a part of the results.

Regarding `Nc1nc2c(ncn2[C@@H]2O[C@H](COP(=O)(O)OP(=O)(O)OP(=O)(O)O)[C@@H](O)[C@H]2O)c(=O)[nH]1` [guanosine triphosphate], the NP40-soluble protein abundance stood at 0.888 ± 0.061 (concentration: 0.1mM); 0.896 ± 0.08 (concentration: 0.5mM); 0.972 ± 0.092 (concentration: 1mM); 0.927 ± 0.12 (concentration: 2mM); 0.901 ± 0.11 (concentration: 4mM); 0.937 ± 0.1 (concentration: 6mM). The NP40-soluble protein abundance runs as follows: (concentration: 8mM) 0.894 ± 0.091; (concentration: 10mM) 0.931 ± 0.079.
